Laboratory results reported in publication PMC3194821.
Results are given in words; binding and its absence hold for the method and conditions named. In cells and extracts the contact can be indirect. Some binding calls cover weakened binding; strength is not graded here.

By UniProt entry, the sequences of proteins in these tests, tags left out. Where a name states a change or a piece, a line headed by the entry shows the natural chain unless it says otherwise. Residues count along the entry.
UniProt P38646, residues 47-679: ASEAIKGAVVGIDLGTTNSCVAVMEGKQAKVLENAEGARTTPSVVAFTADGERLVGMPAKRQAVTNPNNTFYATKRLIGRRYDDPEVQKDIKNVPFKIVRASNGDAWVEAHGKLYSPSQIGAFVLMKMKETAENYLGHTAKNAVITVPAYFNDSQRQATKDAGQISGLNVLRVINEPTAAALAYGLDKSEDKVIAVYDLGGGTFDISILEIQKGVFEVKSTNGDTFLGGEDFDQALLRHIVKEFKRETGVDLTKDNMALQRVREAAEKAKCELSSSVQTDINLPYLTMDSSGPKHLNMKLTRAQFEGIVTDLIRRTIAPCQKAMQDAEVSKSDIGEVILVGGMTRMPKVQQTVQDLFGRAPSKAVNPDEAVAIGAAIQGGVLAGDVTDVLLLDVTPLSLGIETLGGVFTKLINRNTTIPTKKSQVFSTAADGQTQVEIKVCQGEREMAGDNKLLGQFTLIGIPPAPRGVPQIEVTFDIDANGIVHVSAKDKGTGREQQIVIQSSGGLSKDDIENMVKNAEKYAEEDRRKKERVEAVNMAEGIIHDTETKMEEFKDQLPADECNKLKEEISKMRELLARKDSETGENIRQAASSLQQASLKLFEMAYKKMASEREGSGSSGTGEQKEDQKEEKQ
UniProt P10276: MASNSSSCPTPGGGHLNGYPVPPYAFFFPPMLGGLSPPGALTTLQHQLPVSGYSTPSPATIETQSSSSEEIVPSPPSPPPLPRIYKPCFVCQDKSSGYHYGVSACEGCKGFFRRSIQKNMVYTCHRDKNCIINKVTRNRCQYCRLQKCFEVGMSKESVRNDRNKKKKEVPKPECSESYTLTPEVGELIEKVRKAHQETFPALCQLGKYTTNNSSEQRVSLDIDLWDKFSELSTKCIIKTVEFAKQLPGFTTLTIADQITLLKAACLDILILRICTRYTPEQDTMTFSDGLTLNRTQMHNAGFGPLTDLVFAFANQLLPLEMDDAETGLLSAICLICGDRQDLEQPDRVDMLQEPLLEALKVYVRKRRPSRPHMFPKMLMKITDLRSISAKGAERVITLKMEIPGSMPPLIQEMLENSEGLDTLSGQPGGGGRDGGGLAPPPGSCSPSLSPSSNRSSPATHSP

Experiments:
[1] = molecular target: Glucose-regulated protein 75 (GRP75) (human (endogenous in SH-SY5Y)) (UniProt P38646); experiment: co-IP; nuclear extracts (Nuclei EZ Prep Kit) of SH-SY5Y cells treated with RA (10 µM) or 0.1% DMSO for various intervals; immunoprecipitation with anti-GRP75 on protein A agarose, Western blot with anti-RARα or anti-RXRα
[2] = molecular target: Glucose-regulated protein 75 (GRP75) (human (endogenous in SH-SY5Y)) (UniProt P38646); experiment: co-IP; lysates of 30 human primary NB tumors (13 GNB, 9 DNB, 8 UNB); immunoprecipitation with anti-GRP75, immunoblot with anti-RARα or anti-RXRα
[3] = molecular target: Glucose-regulated protein 75 (GRP75) (human (endogenous in SH-SY5Y)) (UniProt P38646); experiment: co-IP; nuclear lysates of SK-N-SH, SK-N-MC, stNB-V1, SK-N-BE, SK-N-DZ and IMR-32 cells treated with 10 µM RA or 0.1% DMSO for 1 d; immunoprecipitation with mouse anti-GRP75, immunoblot with anti-RARα or anti-RXRα
[4] = molecular target: Glucose-regulated protein 75 (GRP75) (human (endogenous in SH-SY5Y)) (UniProt P38646); experiment: co-IP; clarified lysates of stNB-V1 xenograft tumors from nude mice treated with RA (1 mg/kg b.w.) or vehicle daily for 14 d; immunoprecipitation with anti-GRP75, immunoblot with anti-RARα or anti-RXRα
[5] = molecular target: Glucose-regulated protein 75 (GRP75) (human (endogenous in SH-SY5Y)) (UniProt P38646); experiment: co-IP; cytosolic pools of SH-SY5Y cells treated with RA (10 µM) or 0.1% DMSO for various intervals; immunoprecipitation with anti-GRP75 on protein A agarose, Western blot with anti-RARα or anti-RXRα

For “RARα/RXRα heterodimer (retinoic acid receptor alpha / retinoid X receptor alpha) (from UniProt P10276 1-462; P19793 1-462) (complex)”, the binding [1] was “binds”, the binding [2] was “binds” and the binding [3] was “binds”. For the same substance, the binding [4] was “binds” and the binding [5] was “binds weakly”.
